Measurements reported in PubChem BioAssay AID652259 (Drosophila RNAi Screening Center, 2013)

Purpose: 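Knock-downs that push a Wingless-driven reporter up or down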 (primary screen)
Cell system: Drosophila clone 8 imaginal disc epithelial cells
Reagent: long dsRNA against Drosophila genes
Treatment: pathway stimulated by co-transfected Wingless expression plasmid
Measured: 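Firefly luciferase from a tcf-site Wingless reporter, measured alongside co-transfected Renilla luciferase that tracks transfection; pathway stimulated by a Wingless plasmid; the firefly-to-Renilla ratio is not deposited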
Reading the numbers: firefly reporter light: higher = more Wg reporter light, before normalisation; Renilla control light: higher = more transfected or surviving cells
Rule for the call: 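a knock-down is a candidate when at least two out of four statistical tests show it departing from its plate mean; one test alone signals a weak candidate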
Meaning of the calls: active = candidate regulator (raises or lowers reporter); inactive = not a candidate
In all, the deposit lists about 22,000 reagents; shown is a random part of those with a known target gene and a result. Over the whole deposit, 233 (1.1%) are marked active. 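Light values are raw, unnormalised plate reads; the ratio scores behind the reporter calls were not deposited.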 The numbers tell different reagents against one gene apart. No sequences are given here. Not stated in the record: the amount of reagent, the time to read-out, the dose of the treatment.

target gene | reagent | reporter change call, replicate 1 | firefly reporter light, replicate 1 | firefly reporter light, replicate 2 | Renilla control light, replicate 1 | Renilla control light, replicate 2 | Outcome
Orcokinin | 1 | – | 4192 | 9592 | 1104 | 3218 | inactive
Cbp53E (Calbindin 53E) | 1 | – | 15393 | – | 4676 | – | inactive
Taf12L (TBP-associated factor 30kD subunit alpha-2) | 1 | – | 2807 | 7648 | 1239 | 3483 | inactive
CAH9 (Carbonic anhydrase 9) | 1 | – | 7285 | – | 4050 | – | inactive
cnc (cap-n-collar) | 1 | – | 21200 | – | 12816 | – | inactive
cnc (cap-n-collar) | 2 | – | 3346 | 7297 | 1299 | 2352 | inactive
cnc (cap-n-collar) | 3 | – | 15443 | – | 14648 | – | inactive
cnc (cap-n-collar) | 4 | – | 21924 | – | 13664 | – | inactive
CG34396 | 1 | – | 3714 | 11344 | 760 | 3648 | inactive
CG34396 | 2 | – | 1830 | 6657 | 507 | 2082 | inactive
CG9928 | 1 | – | 1529 | 5633 | 806 | 2322 | inactive
PDZ-GEF (PDZ domain-containing guanine nucleotide exchange factor) | 1 | – | 1734 | 7090 | 352 | 3346 | inactive
Cyt-c1L (Cytochrome c1-like) | 1 | – | 7520 | – | 2840 | – | inactive
Cyt-c1L (Cytochrome c1-like) | 2 | – | 5.45e5 | 5.89e5 | 1.86e5 | 1.76e5 | inactive
CG42490 (retired record) | 1 | – | 21313 | – | 9805 | – | inactive
EMC5 (ER membrane protein complex subunit 5) | 1 | – | 2677 | 8166 | 774 | 2915 | inactive
Dnaaf3 (Dynein axonemal assembly factor 3) | 1 | – | 8088 | – | 2096 | – | inactive
omd (oocyte maintenance defects) | 1 | – | 5625 | – | 2712 | – | inactive
CG8407 | 1 | – | 8528 | – | 3363 | – | inactive
CG17154 | 1 | – | 5129 | – | 2165 | – | inactive
SCaMC | 1 | – | 4881 | – | 2823 | – | inactive
SCaMC | 2 | – | 5859 | – | 1744 | – | inactive
CG10139 | 1 | – | 10245 | – | 1308 | – | inactive
Cyp6a15Psi (pseudo) | 1 | – | 2132 | 6674 | 785 | 2615 | inactive
S-Lap1 (Sperm-Leucylaminopeptidase 1) | 1 | – | 7872 | – | 4656 | – | inactive
drl (derailed) | 1 | – | 7532 | – | 2587 | – | inactive
GlcAT-S (Glucuronyltransferase S) | 1 | – | 7237 | – | 2368 | – | inactive
CG14797 | 1 | – | 23988 | – | 12964 | – | inactive
Pebp1 (Phosphatidylethanolamine-binding protein 1) | 1 | – | 37724 | – | 7668 | – | inactive
CG3165 | 1 | – | 6829 | – | 3424 | – | inactive
CG1324 | 1 | – | 1907 | 4220 | 963 | 2168 | inactive
CG13319 | 1 | – | 5282 | – | 1172 | – | inactive
Cyp303a1 (Cytochrome P450 303a1) | 1 | – | 2019 | 7026 | 944 | 2544 | inactive
Noc3 (Nucleolar complex protein 3) | 1 | – | 3755 | – | 1371 | – | inactive
msopa (male-specific opa containing gene) | 1 | – | 7541 | – | 1330 | – | inactive
Tom70 (Translocase of outer membrane 70) | 1 | Wg reporter activity lowered | 1050 | 4845 | 842 | 1936 | inactive
CycH (Cyclin H) | 1 | – | 29653 | – | 8422 | – | inactive
CycH (Cyclin H) | 2 | – | 5.65e5 | 5.63e5 | 2.06e5 | 1.59e5 | inactive
MTPAP (mitochondrial poly(A) polymerase) | 1 | – | 23289 | – | 21029 | – | inactive
Gr59a (Gustatory receptor 59a) | 1 | – | 4.09e5 | 3.99e5 | 1.95e5 | 1.91e5 | inactive
Naus (Nausicaa) | 1 | – | 19995 | – | 3856 | – | inactive
Naus (Nausicaa) | 2 | Wg reporter activity raised | 10816 | – | 1811 | – | inactive
p120ctn (p120 catenin) | 1 | – | 4576 | – | 2272 | – | inactive
CG18568 | 1 | – | 10266 | – | 4058 | – | inactive
aus (argus) | 1 | – | 1819 | – | 1212 | – | inactive
aus (argus) | 2 | – | 2993 | – | 1483 | – | inactive
aus (argus) | 3 | – | 2720 | 7395 | 803 | 1968 | inactive
CG2909 | 1 | – | 18240 | – | 9979 | – | inactive
CG14244 | 1 | – | 7431 | – | 2887 | – | inactive

Records above whose target name begins with T or t (2):
target gene | reagent | reporter change call, replicate 1 | firefly reporter light, replicate 1 | firefly reporter light, replicate 2 | Renilla control light, replicate 1 | Renilla control light, replicate 2 | Outcome
Taf12L (TBP-associated factor 30kD subunit alpha-2) | 1 | – | 2807 | 7648 | 1239 | 3483 | inactive
Tom70 (Translocase of outer membrane 70) | 1 | Wg reporter activity lowered | 1050 | 4845 | 842 | 1936 | inactive
